According to article PMC5470734:
These are yes or no findings as the source states them, for the method shown. For part of these data: In cells and extracts the contact can be indirect. Some results given as binding are weak or reduced against the parent protein; the word gives no strength. Sequences can lack the tags named with a protein.

Key:
[1] = target: T1, AtRAD51 (yeast two-hybrid fusion) (Arabidopsis thaliana) (UniProt P94102); assay: two-hybrid; pGBKT7 constructs in Y2H Gold mated with pGADT7 constructs in Y187; selection on SD/-His-Ade-Trp-Leu with X-alpha-Gal and AbA; blue indicates a positive interaction
T1 sequence: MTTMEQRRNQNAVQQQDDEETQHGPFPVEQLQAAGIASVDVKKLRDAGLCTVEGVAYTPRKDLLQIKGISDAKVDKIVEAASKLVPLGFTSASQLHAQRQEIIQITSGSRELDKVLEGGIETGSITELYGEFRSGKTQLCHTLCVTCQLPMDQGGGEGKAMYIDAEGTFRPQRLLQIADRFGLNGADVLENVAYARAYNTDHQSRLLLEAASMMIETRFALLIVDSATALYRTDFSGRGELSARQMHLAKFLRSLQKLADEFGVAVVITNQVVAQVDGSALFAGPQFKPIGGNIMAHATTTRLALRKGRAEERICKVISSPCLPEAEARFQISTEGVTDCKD

[2] = target: T2, AtRAD51C (yeast two-hybrid fusion) (Arabidopsis thaliana) (UniProt Q8GXF0); assay: as above
T2 sequence: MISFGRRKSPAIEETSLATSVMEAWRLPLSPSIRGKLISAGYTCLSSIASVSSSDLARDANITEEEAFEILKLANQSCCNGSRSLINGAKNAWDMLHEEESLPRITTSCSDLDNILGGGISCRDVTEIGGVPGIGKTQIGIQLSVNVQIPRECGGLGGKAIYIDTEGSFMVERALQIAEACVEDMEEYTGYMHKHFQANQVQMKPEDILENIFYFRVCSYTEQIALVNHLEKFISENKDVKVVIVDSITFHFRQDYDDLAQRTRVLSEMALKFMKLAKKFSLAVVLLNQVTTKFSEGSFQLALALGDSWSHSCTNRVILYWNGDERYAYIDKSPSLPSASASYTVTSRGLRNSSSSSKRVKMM

[3] = target: T3, GST-AtRAD51C (Arabidopsis thaliana) (UniProt Q8GXF0); assay: pull-down; GST- and His-tagged proteins expressed in E. coli, mixed and incubated 2 h at 4°C, pulled down by GST beads 1 h at 4°C; western blot with GST or His-tag antibody
T3 sequence: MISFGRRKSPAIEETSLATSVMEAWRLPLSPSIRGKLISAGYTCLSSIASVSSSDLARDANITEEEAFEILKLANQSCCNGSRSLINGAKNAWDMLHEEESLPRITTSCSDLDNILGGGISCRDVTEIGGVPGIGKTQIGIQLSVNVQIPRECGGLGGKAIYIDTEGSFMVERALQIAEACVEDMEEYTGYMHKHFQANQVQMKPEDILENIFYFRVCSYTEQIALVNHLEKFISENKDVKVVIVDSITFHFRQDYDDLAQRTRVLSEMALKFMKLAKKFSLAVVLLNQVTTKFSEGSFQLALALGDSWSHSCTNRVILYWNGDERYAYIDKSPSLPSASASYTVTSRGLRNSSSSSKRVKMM

[4] = target: T4, GST-AtRAD51 (Arabidopsis thaliana) (UniProt P94102); assay: as above
T4 sequence: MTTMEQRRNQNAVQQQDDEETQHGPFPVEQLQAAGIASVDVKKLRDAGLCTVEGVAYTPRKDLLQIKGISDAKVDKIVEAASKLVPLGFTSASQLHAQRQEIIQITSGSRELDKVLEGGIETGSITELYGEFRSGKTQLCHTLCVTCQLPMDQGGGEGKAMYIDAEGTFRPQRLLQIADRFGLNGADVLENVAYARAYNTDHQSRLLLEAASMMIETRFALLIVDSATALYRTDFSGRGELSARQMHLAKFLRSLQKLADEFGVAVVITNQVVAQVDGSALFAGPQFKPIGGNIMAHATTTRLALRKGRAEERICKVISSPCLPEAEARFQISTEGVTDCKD

[5] = target: T5, AtRAD51 (BiFC fusion) (Arabidopsis thaliana) (UniProt P94102); assay: split reporter; BiFC (YFP) in Nicotiana benthamiana leaf cells after Agrobacterium infiltration; confocal microscopy after 36 h; nuclear signals
T5 sequence: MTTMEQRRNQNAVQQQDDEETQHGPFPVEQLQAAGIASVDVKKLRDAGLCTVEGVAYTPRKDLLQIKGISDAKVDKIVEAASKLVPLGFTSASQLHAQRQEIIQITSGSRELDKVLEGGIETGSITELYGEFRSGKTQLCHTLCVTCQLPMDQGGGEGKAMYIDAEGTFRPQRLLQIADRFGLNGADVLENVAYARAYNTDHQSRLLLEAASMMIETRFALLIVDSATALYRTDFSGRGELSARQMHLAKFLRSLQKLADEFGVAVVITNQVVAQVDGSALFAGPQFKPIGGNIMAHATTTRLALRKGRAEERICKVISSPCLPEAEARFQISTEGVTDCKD

[6] = target: T6, AtXRCC3 (BiFC fusion) (Arabidopsis thaliana) (UniProt Q9FKM5); assay: as above
T6 sequence: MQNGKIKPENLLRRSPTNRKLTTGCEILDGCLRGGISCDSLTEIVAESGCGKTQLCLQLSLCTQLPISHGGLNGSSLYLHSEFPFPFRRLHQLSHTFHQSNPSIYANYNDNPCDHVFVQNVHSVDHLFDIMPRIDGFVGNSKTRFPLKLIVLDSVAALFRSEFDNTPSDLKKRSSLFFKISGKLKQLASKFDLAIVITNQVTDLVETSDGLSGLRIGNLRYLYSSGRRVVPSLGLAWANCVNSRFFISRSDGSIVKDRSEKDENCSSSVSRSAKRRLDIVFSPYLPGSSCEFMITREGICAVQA

B1: AtXRCC3 (yeast two-hybrid fusion) (protein, UniProt Q9FKM5 1-304)
chain: MQNGKIKPENLLRRSPTNRKLTTGCEILDGCLRGGISCDSLTEIVAESGCGKTQLCLQLSLCTQLPISHGGLNGSSLYLHSEFPFPFRRLHQLSHTFHQSNPSIYANYNDNPCDHVFVQNVHSVDHLFDIMPRIDGFVGNSKTRFPLKLIVLDSVAALFRSEFDNTPSDLKKRSSLFFKISGKLKQLASKFDLAIVITNQVTDLVETSDGLSGLRIGNLRYLYSSGRRVVPSLGLAWANCVNSRFFISRSDGSIVKDRSEKDENCSSSVSRSAKRRLDIVFSPYLPGSSCEFMITREGICAVQA
For B1, the binding [1] was “binds” and the binding [2] was “binds”.

B2: AtXRCC3-His tag fusion protein (protein, UniProt Q9FKM5 1-304)
chain: MQNGKIKPENLLRRSPTNRKLTTGCEILDGCLRGGISCDSLTEIVAESGCGKTQLCLQLSLCTQLPISHGGLNGSSLYLHSEFPFPFRRLHQLSHTFHQSNPSIYANYNDNPCDHVFVQNVHSVDHLFDIMPRIDGFVGNSKTRFPLKLIVLDSVAALFRSEFDNTPSDLKKRSSLFFKISGKLKQLASKFDLAIVITNQVTDLVETSDGLSGLRIGNLRYLYSSGRRVVPSLGLAWANCVNSRFFISRSDGSIVKDRSEKDENCSSSVSRSAKRRLDIVFSPYLPGSSCEFMITREGICAVQA
B2 was tested, and the binding [3] was “binds”.

B3: AtRAD51C-His (protein, UniProt Q8GXF0 1-363)
chain: MISFGRRKSPAIEETSLATSVMEAWRLPLSPSIRGKLISAGYTCLSSIASVSSSDLARDANITEEEAFEILKLANQSCCNGSRSLINGAKNAWDMLHEEESLPRITTSCSDLDNILGGGISCRDVTEIGGVPGIGKTQIGIQLSVNVQIPRECGGLGGKAIYIDTEGSFMVERALQIAEACVEDMEEYTGYMHKHFQANQVQMKPEDILENIFYFRVCSYTEQIALVNHLEKFISENKDVKVVIVDSITFHFRQDYDDLAQRTRVLSEMALKFMKLAKKFSLAVVLLNQVTTKFSEGSFQLALALGDSWSHSCTNRVILYWNGDERYAYIDKSPSLPSASASYTVTSRGLRNSSSSSKRVKMM
With B3 the binding [4] was “binds”.

B4: AtRAD51C (BiFC fusion) (protein, UniProt Q8GXF0 1-363)
chain: MISFGRRKSPAIEETSLATSVMEAWRLPLSPSIRGKLISAGYTCLSSIASVSSSDLARDANITEEEAFEILKLANQSCCNGSRSLINGAKNAWDMLHEEESLPRITTSCSDLDNILGGGISCRDVTEIGGVPGIGKTQIGIQLSVNVQIPRECGGLGGKAIYIDTEGSFMVERALQIAEACVEDMEEYTGYMHKHFQANQVQMKPEDILENIFYFRVCSYTEQIALVNHLEKFISENKDVKVVIVDSITFHFRQDYDDLAQRTRVLSEMALKFMKLAKKFSLAVVLLNQVTTKFSEGSFQLALALGDSWSHSCTNRVILYWNGDERYAYIDKSPSLPSASASYTVTSRGLRNSSSSSKRVKMM
With B4 the binding [5] was “binds” and the binding [6] was “binds”.
